In paper PMC9629621:
Changes are numbered by the printed parent chain. Results are given in words; binding and its absence hold for the method and conditions named. Binding seen in cells or lysates may run through a third protein. Some entries that bind do so weakly or less than the wild type. For part of these data: Where a sequence is shown, tags or fusion partners need not be part of it.

The chains behind the UniProt entries cited, without tags or fusion partners. Where a name states a change or a piece, a line headed by the entry shows the natural chain unless it says otherwise.
UniProt P32480: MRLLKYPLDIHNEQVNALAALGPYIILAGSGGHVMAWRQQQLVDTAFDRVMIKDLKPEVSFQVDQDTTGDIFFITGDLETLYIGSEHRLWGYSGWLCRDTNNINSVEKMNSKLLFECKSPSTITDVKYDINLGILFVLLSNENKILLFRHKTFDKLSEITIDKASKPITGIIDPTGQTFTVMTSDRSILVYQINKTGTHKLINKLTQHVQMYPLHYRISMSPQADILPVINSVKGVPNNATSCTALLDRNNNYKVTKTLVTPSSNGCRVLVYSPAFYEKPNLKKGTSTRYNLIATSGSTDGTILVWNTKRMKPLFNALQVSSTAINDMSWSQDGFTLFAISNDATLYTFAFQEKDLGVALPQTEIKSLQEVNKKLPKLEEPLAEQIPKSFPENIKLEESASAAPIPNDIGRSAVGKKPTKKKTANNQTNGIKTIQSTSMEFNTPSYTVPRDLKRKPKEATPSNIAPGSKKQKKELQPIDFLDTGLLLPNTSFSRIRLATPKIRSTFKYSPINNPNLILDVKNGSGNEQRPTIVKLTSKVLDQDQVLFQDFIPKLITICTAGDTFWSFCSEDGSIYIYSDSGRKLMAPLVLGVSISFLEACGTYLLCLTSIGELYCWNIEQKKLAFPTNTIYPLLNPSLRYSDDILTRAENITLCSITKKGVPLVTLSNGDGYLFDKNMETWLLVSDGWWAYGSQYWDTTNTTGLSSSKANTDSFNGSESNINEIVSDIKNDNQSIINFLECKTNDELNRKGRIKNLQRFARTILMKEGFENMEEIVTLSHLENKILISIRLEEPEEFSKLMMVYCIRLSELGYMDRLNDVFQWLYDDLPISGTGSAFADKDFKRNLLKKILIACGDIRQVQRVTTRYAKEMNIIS
UniProt P10591: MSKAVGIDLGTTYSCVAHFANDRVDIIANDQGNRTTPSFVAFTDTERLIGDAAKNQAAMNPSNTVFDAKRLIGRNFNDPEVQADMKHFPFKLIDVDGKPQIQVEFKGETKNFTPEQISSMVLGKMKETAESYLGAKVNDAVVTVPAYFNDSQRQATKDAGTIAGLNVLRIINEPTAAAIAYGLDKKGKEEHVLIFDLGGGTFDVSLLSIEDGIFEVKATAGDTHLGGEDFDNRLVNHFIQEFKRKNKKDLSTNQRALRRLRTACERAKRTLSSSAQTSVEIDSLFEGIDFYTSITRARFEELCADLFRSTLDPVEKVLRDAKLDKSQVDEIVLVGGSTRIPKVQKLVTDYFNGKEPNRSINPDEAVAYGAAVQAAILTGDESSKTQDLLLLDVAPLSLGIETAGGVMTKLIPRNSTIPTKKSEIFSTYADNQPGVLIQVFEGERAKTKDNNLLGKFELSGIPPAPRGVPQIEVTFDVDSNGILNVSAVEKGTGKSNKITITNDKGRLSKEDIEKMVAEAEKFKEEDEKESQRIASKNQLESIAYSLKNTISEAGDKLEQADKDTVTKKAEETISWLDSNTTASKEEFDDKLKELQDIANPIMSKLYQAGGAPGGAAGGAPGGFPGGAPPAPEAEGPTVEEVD
UniProt P25491: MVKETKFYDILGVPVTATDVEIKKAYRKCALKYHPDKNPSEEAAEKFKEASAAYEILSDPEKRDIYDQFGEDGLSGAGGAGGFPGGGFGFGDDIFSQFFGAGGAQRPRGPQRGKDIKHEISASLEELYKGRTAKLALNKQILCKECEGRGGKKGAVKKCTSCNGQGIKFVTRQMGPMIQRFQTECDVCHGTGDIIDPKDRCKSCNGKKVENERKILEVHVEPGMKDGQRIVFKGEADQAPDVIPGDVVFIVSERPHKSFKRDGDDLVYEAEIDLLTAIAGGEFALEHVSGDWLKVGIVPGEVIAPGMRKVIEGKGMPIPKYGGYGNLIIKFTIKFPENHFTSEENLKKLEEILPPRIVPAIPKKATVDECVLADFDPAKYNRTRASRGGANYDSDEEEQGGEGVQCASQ

Experiments:
[1] = target: T1, HA-Ste11 R305A (non-methylatable mutant) (S. cerevisiae) (UniProt P23561); experiment: co-IP; yeast extract (200 ug) on anti-HA magnetic beads, 4°C, 30 min; 50 mM Na-phosphate pH 8.0, 300 mM NaCl, 0.01% Tween-20; western blot
T1 sequence: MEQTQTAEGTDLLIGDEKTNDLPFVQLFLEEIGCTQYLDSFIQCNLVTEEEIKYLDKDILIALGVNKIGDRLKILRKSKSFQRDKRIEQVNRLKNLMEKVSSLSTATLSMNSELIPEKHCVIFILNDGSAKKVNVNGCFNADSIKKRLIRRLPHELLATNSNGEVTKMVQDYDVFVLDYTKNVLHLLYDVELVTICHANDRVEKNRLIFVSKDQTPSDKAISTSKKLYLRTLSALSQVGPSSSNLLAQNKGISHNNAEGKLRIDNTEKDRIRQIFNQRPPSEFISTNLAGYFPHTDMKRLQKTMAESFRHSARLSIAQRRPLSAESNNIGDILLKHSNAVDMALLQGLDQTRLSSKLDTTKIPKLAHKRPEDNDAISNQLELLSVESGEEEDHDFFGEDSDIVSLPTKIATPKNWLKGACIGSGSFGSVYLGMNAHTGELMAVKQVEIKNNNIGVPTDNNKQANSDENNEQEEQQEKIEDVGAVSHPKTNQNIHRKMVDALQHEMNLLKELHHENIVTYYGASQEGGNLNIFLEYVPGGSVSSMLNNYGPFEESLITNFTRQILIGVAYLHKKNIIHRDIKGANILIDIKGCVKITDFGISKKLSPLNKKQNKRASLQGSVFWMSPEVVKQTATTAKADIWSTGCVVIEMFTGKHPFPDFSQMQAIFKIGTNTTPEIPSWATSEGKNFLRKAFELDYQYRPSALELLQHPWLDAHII

[2] = target: T2, Mtw1 Y86F (non-phosphorylatable mutant) (S. cerevisiae) (UniProt P39731); experiment: co-IP; yeast extract (200 ug) on anti-Flag M2 magnetic beads, 4°C overnight; 50 mM Na-phosphate pH 8.0, 300 mM NaCl, 0.01% Tween-20; eluted with 3x FLAG peptide; western blot
T2 sequence: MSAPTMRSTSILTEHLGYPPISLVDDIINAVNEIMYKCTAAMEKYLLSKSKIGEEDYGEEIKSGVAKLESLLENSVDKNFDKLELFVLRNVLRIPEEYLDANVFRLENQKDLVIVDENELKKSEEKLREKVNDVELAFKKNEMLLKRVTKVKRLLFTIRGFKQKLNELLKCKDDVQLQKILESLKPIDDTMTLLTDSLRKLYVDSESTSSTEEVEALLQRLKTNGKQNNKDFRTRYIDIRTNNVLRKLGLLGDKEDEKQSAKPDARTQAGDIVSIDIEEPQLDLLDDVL

[3] = target: T3, Mtw1-FLAG (S. cerevisiae) (UniProt P39731); experiment: as above
T3 sequence: T2 sequence with F86Y

[4] = target: Hir2 (immunoprecipitated from yeast) (S. cerevisiae) (UniProt P32480); experiment: co-IP; Co-IP of Hir1 and Hir2 from yeast followed by immunoblotting for chaperones (Fig 4C); beads and tag not told for this panel
[5] = target: Ssa1 wild type, epitope-tagged (FLAG-Ssa1, GFP-Ssa1, HA-Ssa1) (S. cerevisiae) (UniProt P10591); experiment: co-IP; yeast extract (200 ug) on anti-Flag M2 magnetic beads, 4°C overnight; 50 mM Na-phosphate pH 8.0, 300 mM NaCl, 0.01% Tween-20; eluted with 3x FLAG peptide; western blot
[6] = target: FLAG-Ssa1 V435F (substrate-binding deficient mutant) (S. cerevisiae) (UniProt P10591); experiment: as above

binding [1]	binding [2]	binding [3]	binding [4]	binding [5]	binding [6]	Substance
binds	binds	binds	binds	–	–	Ssa1 (endogenous, detected with anti-Ssa1) (from UniProt P10591 1-642)
binds	–	binds	binds	binds	binds	Ydj1 co-chaperone (from UniProt P25491 1-409)
